Paper PMC10624832
No constants are given. Whether binding was seen depends on the method and setting.

The chains behind the UniProt entries cited, without tags or fusion partners. Where a name states a change or a piece, a line headed by the entry shows the natural chain unless it says otherwise. A line that says so, or that is headed by a name, gives the form on record, which may keep a tag or linker.
DNAJB6 ΔST (deletion of res. 138-182), monomeric DNAJB6 WT (O75190-2, form named): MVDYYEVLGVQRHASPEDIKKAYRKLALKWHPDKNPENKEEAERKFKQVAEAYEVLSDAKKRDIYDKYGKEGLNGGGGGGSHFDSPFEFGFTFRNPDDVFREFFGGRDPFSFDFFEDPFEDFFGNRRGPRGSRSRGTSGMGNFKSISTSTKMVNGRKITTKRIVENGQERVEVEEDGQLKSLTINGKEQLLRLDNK

Target: DNAJB6 ΔST (deletion of res. 138-182), monomeric DNAJB6 WT (human) (UniProt O75190)
Assay: SEC-MALS; 100 µM DNAJB6 WT, LGMDD1 disease mutants or DNAJB6 ΔST on Superose 6 Increase 10/300 GL; both purified

Substance: DNAJB6 ΔST (deletion of res. 138-182), monomeric DNAJB6 WT (from UniProt O75190-2 1-241)
- binding: no binding (tested: 100 µM)
